We go through 18 compounds from PubChem BioAssay AID248 (DTP/NCI, 2004).

This assay relates to L1210 leukemia ip in BDF1 mice, survival T/C. Description: NCI In Vivo Anticancer Drug Screen. Data for tumor model L1210 Leukemia (intraperitoneal) in B6D2F1 (BDF1) mice. The following applies: T/C endpoint: mean survival time, higher T/C = longer survival.
[1] abbreviates: dose: 50.0 mg/kg/injection, schedule: Q01DX001 (ip), vehicle: saline.
The mark [2] stands for this setting: dose: 100.0 mg/kg/injection, schedule: Q01DX001 (ip), vehicle: saline.
Setting [3] is: dose: 100.0 mg/kg/injection, schedule: Q04DX003 (ip), vehicle: saline.
Where [4] appears, read: dose: 200.0 mg/kg/injection, schedule: Q01DX001 (ip), vehicle: saline.
Where [5] appears, read: dose: 200.0 mg/kg/injection, schedule: Q04DX003 (ip), vehicle: saline.
Setting [6] is: dose: 400.0 mg/kg/injection, schedule: Q01DX001 (ip), vehicle: saline.
The mark [7] stands for this setting: dose: 400.0 mg/kg/injection, schedule: Q04DX003 (ip), vehicle: saline.
[8] abbreviates: dose: 400.0 mg/kg/injection, schedule: Q01DX009 (ip), vehicle: saline with Tween-80.

The list is a part of this screen's results and no random one: it is rich in T/C values a quarter to a half above the control, in often repeated tests (any T/C) and in doses without a T/C. Other doses and runs of a compound stand elsewhere. T/C: endpoint of the treated group in % of that of the vehicle group. Some entries give survivors of the animals treated and no T/C: the source holds a T/C of zero for them, seemingly a mark for toxic or unscored doses. Some survivor counts are full or nearly so, which does not show that the dose was tolerated: survival well below the control is almost never listed, so the zero probably covers shortened survival too. Survivors were counted at the toxicity check, usually on the fifth day, unless a day is given; later deaths do not show. Schedules are NCI's codes, read here as Q, the interval in days (D) or hours (H), X, the number of doses. Some schedule codes hold Z or #, which are not explained here. Some doses were run more than once; the results are listed from low to high. For survival time, this PubChem deposit counts one and a half times the control or more as active, and values a quarter to a half above the control carry no call in these data; other NCI protocols may use other cut-offs.

Consider `CCN1c2ccccc2C(Cl)(c2ccc(N(C)C)cc2)c2ccccc21`, for which the survivor count is, setting by setting: (dose: 20.0 mg/kg/injection, schedule: Q03HX024 (ip), vehicle: saline) 0 of 10; (dose: 30.0 mg/kg/injection, schedule: Q03HX024 (ip), vehicle: saline) 0 of 10; (dose: 45.0 mg/kg/injection, schedule: Q01DX009 (ip), vehicle: saline) 8 of 10; (dose: 45.0 mg/kg/injection, schedule: Q03HX024 (ip), vehicle: saline) 0 of 10; under setting [1], 0 of 6; (dose: 59.0 mg/kg/injection, schedule: Q01DX001 (ip), vehicle: saline) 3 of 10. Moreover, the survivor count by setting is: (dose: 59.0 mg/kg/injection, schedule: Q04DX003 (ip), vehicle: saline) 2 of 10; (dose: 88.0 mg/kg/injection, schedule: Q01DX001 (ip), vehicle: saline) 0 of 10; (dose: 88.0 mg/kg/injection, schedule: Q04DX003 (ip), vehicle: saline) 0 of 10 and 1 of 10; under setting [2], 0 of 6; under setting [3], 0 of 6; (dose: 134.0 mg/kg/injection, schedule: Q01DX001 (ip), vehicle: saline) 0 of 10. Moreover, the survivor count reads like this: (dose: 134.0 mg/kg/injection, schedule: Q04DX003 (ip), vehicle: saline) 0 of 10; under setting [4], 0 of 10 and 0 of 6; under setting [5], 0 of 10 and 0 of 6; (dose: 300.0 mg/kg/injection, schedule: Q01DX001 (ip), vehicle: saline) 0 of 10; (dose: 300.0 mg/kg/injection, schedule: Q04DX003 (ip), vehicle: saline) 0 of 10; under setting [6], 0 of 6. Besides, the survivor count reads like this: under setting [7], 0 of 6; (dose: 450.0 mg/kg/injection, schedule: Q01DX001 (ip), vehicle: saline) 0 of 10; (dose: 450.0 mg/kg/injection, schedule: Q04DX003 (ip), vehicle: saline) 0 of 10.

As for `NNc1ccccc1`, the survivor count under setting [6] was 1 of 4.

In the case of `COC1/C=C/O[C@@]2(C)Oc3c(C)c(O)c4c(O)c(cc(O)c4c3C2=O)NC(=O)/C(C)=C\C=C\[C@H](C)C(O)[C@@H](C)[C@@H](O)[C@@H](C)[C@H](OC(C)=O)[C@@H]1C` (stereo partly specified), the survivor count by setting is: (dose: 256.0 mg/kg/injection, schedule: Q03HX040 (ip), vehicle: saline) 10 of 10; (dose: 1024.0 mg/kg/injection, schedule: Q03HX040 (ip), vehicle: saline) 8 of 10.

As for `Cc1ccc(/C=C2/C=C(c3ccccc3)OC2=O)cc1`, the survivor count (dose: 400.0 mg/kg/injection, schedule: Q04DX003 (ip), vehicle: alcohol) is 3 of 6.

Consider `C1CCC2C(C1)NC1CCCCC12` (stereo unspecified), for which the survivor count under setting [5] is 0 of 6 and the survivor count under setting [7] was 0 of 6.

In the case of `O=C(Nc1ccc(S(=O)(=O)F)cc1)/C(=C/c1ccc([N+](=O)[O-])cc1)c1ccccc1`, the survivor count runs as follows: (dose: 100.0 mg/kg/injection, schedule: Q01DX009 (ip), vehicle: saline with Tween-80) 5 of 6; (dose: 200.0 mg/kg/injection, schedule: Q01DX009 (ip), vehicle: saline with Tween-80) 4 of 6; under setting [8], 1 of 6.

As to `CC1(C)CC(=O)C2=C(C1)Nc1ccc(Cl)cc1NC2c1ccccc1` (stereo unspecified), the T/C (dose: 100.0 mg/kg/injection, schedule: Q04DX002 (ip), vehicle: Klucel (hydroxypropylcellulose) (HPC)) was 127 % of control.

Regarding `Cc1cc([N+](C)(C)C)cc(C)c1C#[N+][O-]`, the survivor count by setting is: under setting [1], 2 of 6; under setting [2], 0 of 6; under setting [4], 0 of 6; under setting [6], 0 of 6.

Turning to `O=C(/C=C\c1ccc(NCc2ccc(C(=O)O)cc2)cc1)CCl`, the survivor count (dose: 100.0 mg/kg/injection, schedule: Q01DX001 (ip), vehicle: carboxymethylcellulose (CMC)) was 4 of 4.

Consider `OC(CN1CC1)C(O)CN1CC1` (stereo unspecified), for which the T/C is, setting by setting: (dose: 0.12 mg/kg/injection, schedule: Q01DX Z (ip), vehicle: carboxymethylcellulose (CMC)) 137 % of control; (dose: 0.25 mg/kg/injection, schedule: Q01DX Z (ip), vehicle: carboxymethylcellulose (CMC)) 145 % of control. Further, the survivor count reads like this: (dose: 1.0 mg/kg/injection, schedule: Q01DX Z (ip), vehicle: carboxymethylcellulose (CMC)) 6 of 6; (dose: 1.5 mg/kg/injection, schedule: Q01DX Z (ip), vehicle: carboxymethylcellulose (CMC)) 5 of 6; (dose: 2.2 mg/kg/injection, schedule: Q01DX Z (ip), vehicle: carboxymethylcellulose (CMC)) 0 of 6; (dose: 3.3 mg/kg/injection, schedule: Q01DX Z (ip), vehicle: carboxymethylcellulose (CMC)) 0 of 6.

Turning to `ClCCN1CCC2(CC1)SSC1(CCN(CCCl)CC1)S2`, the survivor count is reported as 0 of 6 (dose: 40.0 mg/kg/injection, schedule: Q01DX009 (ip), vehicle: saline); 2 of 6 (dose: 80.0 mg/kg/injection, schedule: Q01DX001 (ip), vehicle: Klucel (hydroxypropylcellulose) (HPC)); 1 of 6 (dose: 100.0 mg/kg/injection, schedule: Q01DX001 (ip), vehicle: Klucel (hydroxypropylcellulose) (HPC)); 0 of 6 under setting [3]; 0 of 6 (dose: 200.0 mg/kg/injection, schedule: Q01DX001 (ip), vehicle: Klucel (hydroxypropylcellulose) (HPC)); 0 of 6 under setting [5]. For the same compound, the survivor count (dose: 400.0 mg/kg/injection, schedule: Q01DX001 (ip), vehicle: Klucel (hydroxypropylcellulose) (HPC)) was 0 of 6 and the survivor count under setting [7] is 0 of 6.

For the compound `CNC1CC2CCC1(C)C2(C)C` (stereo unspecified), the survivor count reads like this: (dose: 200.0 mg/kg/injection, schedule: Q04DX002 (ip), vehicle: saline) 0 of 3; (dose: 400.0 mg/kg/injection, schedule: Q04DX002 (ip), vehicle: saline) 0 of 3.

In the case of `O=NO.[Co].[NH2-].[NH2-].[NH2-].[NH2-].[NH2-]`, the survivor count is 0 of 3 (dose: 12.5 mg/kg/injection, schedule: Q04DX003 (ip), vehicle: saline); 3 of 3 (dose: 50.0 mg/kg/injection, schedule: Q04DX003 (ip), vehicle: saline); 0 of 3 (dose: 100.0 mg/kg/injection, schedule: Q04DX003 (ip), vehicle: saline with Tween-80); 0 of 3 (dose: 200.0 mg/kg/injection, schedule: Q04DX003 (ip), vehicle: saline with Tween-80); 0 of 3 (dose: 400.0 mg/kg/injection, schedule: Q04DX003 (ip), vehicle: saline with Tween-80).

For the compound `O=C(NCCCCNC(=O)Nc1cccc(C2=NCCCN2)c1)Nc1cccc(C2=NCCCN2)c1`, the survivor count (dose: 2.7 mg/kg/injection, schedule: Q01DX Z (ip), vehicle: carboxymethylcellulose (CMC)) is 0 of 6 and the survivor count (dose: 5.4 mg/kg/injection, schedule: Q01DX Z (ip), vehicle: carboxymethylcellulose (CMC)) was 0 of 6.

With `CC(=O)NNC(=O)c1ccccc1`, the T/C under setting [8] is 127 % of control. Further, the survivor count (dose: 400.0 mg/kg/injection, schedule: Q01DX009 (ip), vehicle: saline) is given as 4 of 6.

With `O=C1CCC2CCC(CC2)O1`, the survivor count by setting is: (dose: 40.0 mg/kg/injection, schedule: Q01DX001 (ip), vehicle: saline) 2 of 4; (dose: 80.0 mg/kg/injection, schedule: Q01DX001 (ip), vehicle: saline) 0 of 4.

`COc1ccc([N+](=O)[O-])cc1NS(=O)(=O)c1cccc([N+](=O)[O-])c1`: the survivor count under setting [8] was 6 of 6.

Consider `C[N+](C)(C)CC(O)COc1ccc(Cl)cc1Cl` (stereo unspecified), for which the survivor count is, setting by setting: (dose: 200.0 mg/kg/injection, schedule: Q04DX002 (ip), vehicle: Klucel (hydroxypropylcellulose) (HPC)) 0 of 3; (dose: 400.0 mg/kg/injection, schedule: Q04DX002 (ip), vehicle: Klucel (hydroxypropylcellulose) (HPC)) 0 of 3.
